SMILES strings stand for the structures.

What all share (assay type): biochemical
A short description of series [1]: Quantification of ADP in the presence of maleimides or iodoacetamide (Example 19). To be noted: 20 μM ADP, 40 mM SH reagent.
A short description of series [2]: ADP calibration by enzymatic coupling with or without DTT and SH reagent (Examples 10, 12, 13). Conditions: 20 μM ADP, 2 mM DTT.
The nature of series [3]: Quantification of ADP in the presence of DTT, 2-mercaptoethanol or TCEP (Example 20). Conditions: 20 μM ADP, 40 mM SH reagent.

With `O=C1C=CC(=O)N1CCS(=O)(=O)O` [N-(2-sulfoethyl)maleimide], the values for the S/B ratio in series [1] (3 mM DTT) and in series [1] (6 mM DTT) were 24.0 and 21.0, respectively.
As for `CCN1C(=O)C=CC1=O` [N-ethylmaleimide], the S/B ratio in series [2] (20 mM SH reagent) amounted to 36.7; in series [1] (3 mM DTT), 23.8; in series [1] (6 mM DTT), 22.5; in series [3] (6 mM 2-mercaptoethanol), 19.6; in series [3] (6 mM DTT) it was 18.2; in series [3] (6 mM TCEP) it was 19.9. Further, the “increase of S/B ratio versus no SH reagent” value in series [2] (20 mM SH reagent) was “about 9 times”.
Take `NC(=O)CI` [iodoacetamide]: the S/B ratio in series [2] (8 mM SH reagent) is on record as 18.6; in series [1] (3 mM DTT), 18.2; in series [1] (6 mM DTT) it was 13.3; in series [3] (6 mM 2-mercaptoethanol), 18.8; in series [3] (6 mM DTT), 9.0; in series [3] (6 mM TCEP), 12.1.
